The target of experiment [1] is T1, FLAG-K408R Atac2 (Mus musculus) (UniProt Q8CID0).
T1 sequence: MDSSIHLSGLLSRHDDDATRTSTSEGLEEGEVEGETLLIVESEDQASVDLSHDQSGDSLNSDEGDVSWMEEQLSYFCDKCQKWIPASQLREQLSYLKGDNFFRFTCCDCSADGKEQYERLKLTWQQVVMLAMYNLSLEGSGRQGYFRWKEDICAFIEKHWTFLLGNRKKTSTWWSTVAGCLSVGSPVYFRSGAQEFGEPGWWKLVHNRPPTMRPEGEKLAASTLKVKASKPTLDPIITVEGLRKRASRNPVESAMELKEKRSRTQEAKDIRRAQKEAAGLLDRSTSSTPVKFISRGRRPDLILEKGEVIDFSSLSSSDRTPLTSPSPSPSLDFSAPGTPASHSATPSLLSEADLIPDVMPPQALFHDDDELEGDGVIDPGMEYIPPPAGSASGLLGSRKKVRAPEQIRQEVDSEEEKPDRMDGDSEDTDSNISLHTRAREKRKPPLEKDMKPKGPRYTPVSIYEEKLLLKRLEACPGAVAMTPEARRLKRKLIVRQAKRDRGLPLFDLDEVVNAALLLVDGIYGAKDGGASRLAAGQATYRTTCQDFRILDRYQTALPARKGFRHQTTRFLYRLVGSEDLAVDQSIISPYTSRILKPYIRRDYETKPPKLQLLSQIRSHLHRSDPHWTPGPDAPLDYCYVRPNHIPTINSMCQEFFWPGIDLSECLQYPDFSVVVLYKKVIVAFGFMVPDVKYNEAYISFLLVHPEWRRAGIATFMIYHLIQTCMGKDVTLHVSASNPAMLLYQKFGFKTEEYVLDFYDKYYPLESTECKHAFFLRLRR
The experiment in a line: in vitro SUMOylation assay (Western blot); 2.5 μg FLAG-Atac2 with 2 mM ATP, 1.0 μg His-SUMO2, 0.75 μg GST-E1 (Aos1/Uba2), 0.05 μg His-E2 (Ubc9), 2 hours at 30 °C, 50 mM Tris-HCl pH 7.6, 6 mM MgCl2, 1 mM DTT; anti-FLAG blot; covalent conjugate; both purified. Background: In western blotting, separated proteins are transferred to a membrane and probed.

Sequences of proteins named here, by UniProt entry; tags and fusion partners are left off. A change or cut given only in a name is not applied to a line headed by its entry.
UniProt P61956: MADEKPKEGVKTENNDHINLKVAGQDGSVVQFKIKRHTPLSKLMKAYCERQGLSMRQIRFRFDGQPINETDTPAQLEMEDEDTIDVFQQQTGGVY

Experiment [2] has as its target T2, Atac2 K305A (Mus musculus) (UniProt Q8CID0).
T2 sequence: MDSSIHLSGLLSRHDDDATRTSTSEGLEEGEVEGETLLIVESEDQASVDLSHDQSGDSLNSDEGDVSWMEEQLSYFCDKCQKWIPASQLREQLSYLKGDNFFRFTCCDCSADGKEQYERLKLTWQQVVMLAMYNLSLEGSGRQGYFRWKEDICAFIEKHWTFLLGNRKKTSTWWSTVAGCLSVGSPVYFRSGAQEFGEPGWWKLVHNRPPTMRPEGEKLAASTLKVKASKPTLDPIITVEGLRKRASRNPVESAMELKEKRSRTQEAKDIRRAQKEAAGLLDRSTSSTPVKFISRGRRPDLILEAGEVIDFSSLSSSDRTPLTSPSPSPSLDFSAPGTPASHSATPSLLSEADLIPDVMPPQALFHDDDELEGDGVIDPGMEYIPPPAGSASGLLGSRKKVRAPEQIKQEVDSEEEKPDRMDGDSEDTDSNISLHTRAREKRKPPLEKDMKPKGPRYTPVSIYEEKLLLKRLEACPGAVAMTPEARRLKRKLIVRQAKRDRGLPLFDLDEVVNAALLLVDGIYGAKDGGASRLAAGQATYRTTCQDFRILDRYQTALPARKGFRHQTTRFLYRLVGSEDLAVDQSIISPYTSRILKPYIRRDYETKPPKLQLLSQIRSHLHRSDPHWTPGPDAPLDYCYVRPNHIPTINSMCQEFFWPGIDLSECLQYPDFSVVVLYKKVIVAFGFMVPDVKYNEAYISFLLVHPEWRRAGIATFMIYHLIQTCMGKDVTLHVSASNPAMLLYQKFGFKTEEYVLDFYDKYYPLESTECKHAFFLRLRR
Put plainly: co-IP; NIH3T3 lysates (NP-40 lysis buffer with 20 mM N-ethylmaleimide), immunoprecipitation of tagged Atac2 (anti-V5), denatured, SDS-PAGE and Western blot with anti-V5 and anti-Myc; SUMO seen in upshifted bands (covalent conjugate).

Experiment [3] addresses T3, Atac2 K749A (Mus musculus) (UniProt Q8CID0).
T3 sequence: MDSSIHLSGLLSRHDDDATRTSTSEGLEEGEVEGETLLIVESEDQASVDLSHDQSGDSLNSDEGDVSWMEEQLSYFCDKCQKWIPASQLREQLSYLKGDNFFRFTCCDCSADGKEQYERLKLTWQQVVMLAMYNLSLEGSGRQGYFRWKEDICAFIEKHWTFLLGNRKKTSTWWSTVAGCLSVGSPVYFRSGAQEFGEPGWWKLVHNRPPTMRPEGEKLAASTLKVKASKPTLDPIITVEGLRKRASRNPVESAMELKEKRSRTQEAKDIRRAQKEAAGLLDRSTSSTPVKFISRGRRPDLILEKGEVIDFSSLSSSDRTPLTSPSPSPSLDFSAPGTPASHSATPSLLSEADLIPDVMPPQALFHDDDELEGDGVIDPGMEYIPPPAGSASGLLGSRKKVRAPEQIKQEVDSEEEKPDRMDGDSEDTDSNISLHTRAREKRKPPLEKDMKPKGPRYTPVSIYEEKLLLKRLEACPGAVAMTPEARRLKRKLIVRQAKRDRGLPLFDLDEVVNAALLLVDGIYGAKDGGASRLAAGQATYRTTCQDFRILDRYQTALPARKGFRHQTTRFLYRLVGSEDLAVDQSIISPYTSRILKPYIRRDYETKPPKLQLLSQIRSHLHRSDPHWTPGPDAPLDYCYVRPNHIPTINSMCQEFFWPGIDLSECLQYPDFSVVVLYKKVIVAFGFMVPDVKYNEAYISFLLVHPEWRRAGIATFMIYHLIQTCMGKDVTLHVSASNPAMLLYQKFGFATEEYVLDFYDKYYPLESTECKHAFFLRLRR
The experiment is described as above.

In a further experiment the target is T4, Atac2-V5 (Mus musculus) (UniProt Q8CID0).
T4 sequence: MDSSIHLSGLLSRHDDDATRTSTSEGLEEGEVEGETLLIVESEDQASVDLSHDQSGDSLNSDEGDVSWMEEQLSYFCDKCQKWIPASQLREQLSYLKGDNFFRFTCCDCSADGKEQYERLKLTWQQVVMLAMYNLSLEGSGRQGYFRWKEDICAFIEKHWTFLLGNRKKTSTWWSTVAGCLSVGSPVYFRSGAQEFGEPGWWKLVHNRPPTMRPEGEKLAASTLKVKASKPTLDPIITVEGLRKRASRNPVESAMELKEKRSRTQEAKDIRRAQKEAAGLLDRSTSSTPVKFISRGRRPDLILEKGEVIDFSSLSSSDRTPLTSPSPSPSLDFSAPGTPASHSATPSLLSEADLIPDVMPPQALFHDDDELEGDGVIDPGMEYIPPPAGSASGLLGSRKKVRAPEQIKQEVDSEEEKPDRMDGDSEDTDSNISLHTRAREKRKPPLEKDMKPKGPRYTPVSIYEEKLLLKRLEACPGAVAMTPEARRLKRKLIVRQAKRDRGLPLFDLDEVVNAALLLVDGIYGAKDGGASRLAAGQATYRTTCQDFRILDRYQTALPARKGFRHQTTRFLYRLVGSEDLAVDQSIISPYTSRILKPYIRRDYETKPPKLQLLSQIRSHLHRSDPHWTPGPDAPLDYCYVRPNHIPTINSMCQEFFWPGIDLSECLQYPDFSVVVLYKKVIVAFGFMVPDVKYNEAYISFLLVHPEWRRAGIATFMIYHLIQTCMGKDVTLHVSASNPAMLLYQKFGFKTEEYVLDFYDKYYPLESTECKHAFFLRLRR
Described as above.

In a further experiment the target is T5, VC-Atac2 (Mus musculus) (UniProt Q8CID0).
T5 sequence: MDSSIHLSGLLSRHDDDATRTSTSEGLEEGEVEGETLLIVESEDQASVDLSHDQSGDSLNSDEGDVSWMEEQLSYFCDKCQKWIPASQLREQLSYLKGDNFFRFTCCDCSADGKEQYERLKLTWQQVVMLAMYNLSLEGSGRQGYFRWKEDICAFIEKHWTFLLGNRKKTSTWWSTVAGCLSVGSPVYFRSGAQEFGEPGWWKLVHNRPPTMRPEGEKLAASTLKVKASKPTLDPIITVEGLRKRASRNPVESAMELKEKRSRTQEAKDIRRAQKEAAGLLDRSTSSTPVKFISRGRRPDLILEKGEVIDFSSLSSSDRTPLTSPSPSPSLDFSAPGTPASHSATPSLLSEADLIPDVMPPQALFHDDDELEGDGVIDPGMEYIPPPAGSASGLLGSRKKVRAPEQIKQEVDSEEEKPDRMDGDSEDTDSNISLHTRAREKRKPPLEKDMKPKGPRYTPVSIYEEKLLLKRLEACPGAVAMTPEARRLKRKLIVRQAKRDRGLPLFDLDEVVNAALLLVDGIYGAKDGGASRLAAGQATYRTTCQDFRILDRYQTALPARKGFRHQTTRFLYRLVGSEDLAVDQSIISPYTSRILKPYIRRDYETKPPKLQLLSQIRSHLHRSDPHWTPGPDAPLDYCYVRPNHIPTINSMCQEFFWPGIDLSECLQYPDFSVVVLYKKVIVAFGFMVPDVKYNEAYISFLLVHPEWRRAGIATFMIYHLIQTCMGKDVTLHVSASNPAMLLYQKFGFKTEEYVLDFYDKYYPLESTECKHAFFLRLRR
The experiment is described as above.

Experiment [4] has as its target T6, Venus-Atac2 (Mus musculus) (UniProt Q8CID0).
T6 sequence: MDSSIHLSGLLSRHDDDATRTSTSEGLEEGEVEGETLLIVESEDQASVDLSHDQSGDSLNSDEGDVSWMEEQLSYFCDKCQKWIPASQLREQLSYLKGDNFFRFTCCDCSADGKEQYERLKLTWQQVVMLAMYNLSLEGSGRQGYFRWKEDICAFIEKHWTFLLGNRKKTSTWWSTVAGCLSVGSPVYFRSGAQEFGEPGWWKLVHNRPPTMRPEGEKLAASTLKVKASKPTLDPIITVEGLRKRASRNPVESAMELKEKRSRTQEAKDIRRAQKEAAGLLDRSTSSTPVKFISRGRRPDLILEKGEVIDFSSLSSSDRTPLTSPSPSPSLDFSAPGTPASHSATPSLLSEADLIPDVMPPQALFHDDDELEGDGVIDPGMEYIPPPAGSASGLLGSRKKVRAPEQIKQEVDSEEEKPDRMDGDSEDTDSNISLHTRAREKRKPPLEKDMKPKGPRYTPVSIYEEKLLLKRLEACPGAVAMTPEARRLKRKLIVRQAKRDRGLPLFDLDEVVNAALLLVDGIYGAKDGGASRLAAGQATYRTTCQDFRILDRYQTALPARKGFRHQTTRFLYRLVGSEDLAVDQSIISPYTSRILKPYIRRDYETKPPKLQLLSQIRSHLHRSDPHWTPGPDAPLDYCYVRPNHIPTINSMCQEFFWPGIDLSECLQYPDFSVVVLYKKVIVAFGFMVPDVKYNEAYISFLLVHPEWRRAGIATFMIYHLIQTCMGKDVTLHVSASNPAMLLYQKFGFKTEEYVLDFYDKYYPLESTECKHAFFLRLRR
The experiment is described as above.

In experiment [5] the target is T7, double-V5-tagged Atac2 (Mus musculus) (UniProt Q8CID0).
T7 sequence: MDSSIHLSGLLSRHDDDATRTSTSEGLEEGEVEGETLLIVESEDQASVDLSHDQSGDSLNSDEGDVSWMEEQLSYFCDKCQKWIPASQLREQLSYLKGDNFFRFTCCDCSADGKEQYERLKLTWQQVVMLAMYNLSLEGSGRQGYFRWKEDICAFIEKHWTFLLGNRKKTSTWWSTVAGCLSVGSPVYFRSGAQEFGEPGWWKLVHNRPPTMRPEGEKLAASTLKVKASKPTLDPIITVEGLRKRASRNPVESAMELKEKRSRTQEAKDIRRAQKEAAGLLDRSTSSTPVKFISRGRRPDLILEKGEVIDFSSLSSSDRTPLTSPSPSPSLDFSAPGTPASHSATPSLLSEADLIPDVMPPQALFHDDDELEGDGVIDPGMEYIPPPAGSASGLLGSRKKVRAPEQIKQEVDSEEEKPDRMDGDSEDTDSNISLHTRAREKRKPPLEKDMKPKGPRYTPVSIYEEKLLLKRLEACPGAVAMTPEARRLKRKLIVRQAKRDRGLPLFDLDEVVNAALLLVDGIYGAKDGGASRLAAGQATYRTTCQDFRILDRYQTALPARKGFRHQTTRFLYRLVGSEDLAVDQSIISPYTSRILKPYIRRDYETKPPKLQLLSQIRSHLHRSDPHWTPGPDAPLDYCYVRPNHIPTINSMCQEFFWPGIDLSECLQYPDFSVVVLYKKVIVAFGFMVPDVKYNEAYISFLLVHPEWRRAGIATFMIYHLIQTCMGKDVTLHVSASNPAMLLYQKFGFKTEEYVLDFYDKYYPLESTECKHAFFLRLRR
The experiment is described as above.

These are yes or no findings as the source states them, for the method shown. For some of these results: Binding seen in cells or lysates may run through a third protein. For some of these results: Binding can be weak; no strength is given. For some of these results: Sequences can lack the tags named with a protein.

In the case of His-SUMO2 (from UniProt P61956), the binding result in experiment [1] is on record as “no binding”.

For the substance Myc-SUMO2 (from UniProt P61956), the binding result (in experiment [2]; in experiment [3]; with Atac2-V5 (Mus musculus); with VC-Atac2 (Mus musculus); in experiment [4]; in experiment [5]) was “binds” each time.

Source of the values: paper PMC5727073.
